The results in this text go back to publication PMC10163288.

The other results are listed elsewhere or left out.

First the molecules themselves.
B1: il2ra_site1_2b5i_normal_mot_HHH_b1_07278_af2_000000289_0001_23_39_H_._HHH_b1_01150_af2_0001_0000100005_0000001_0_af2pred_0001_af2pred_1 (protein)
chain: SSSSSLEEFAEKVVEKLVEEFNLSESLKRQLQRIAELAAKNGESEEQIEEFLRKFAEIASSSSSS
B2: il2ra_site2_3nfp_normal_mot_HHH_b2_07498_000000057_0001_1_14_H_._HHH_b2_00986_0002_0000400018_0000001_0 (protein)
chain: SSSSDIEERVKELLEEARELLEEGDRFEAARLVLEATRLALEGNDPELAREVLELYELIKGSSSS
B3: il2ra_site2_3nfp_sap_25_mot_HHH_b1_04781_af2_000000057_0001_1_18_H_._68a93843eea4aac11f7850c58dbd17f4_0001_0001_0000300015_0000001_0_0001 (protein)
chain: SSSSDLEEEAEELLFRAYRLMLEGNPEEARKLLEKAEELAREGGDEDLLRLIEWALEALRQSSSS
B4: il2ra_site2_2erj_normal_mot_af86707857d369f3e1d85dcabc5f9321_0001_000000201_0001_14_29_H_._HHH_b2_05893_0001_0000400040_0000001_0 (protein)
chain: SSSSDEEVRRLIEQAEELLEEGNPEEAVSVLIEAAHLAAREGNEELLKRISELFEELYRKSSSSS
B5: il2ra_site1_1z92_normal_mot_HHH_b1_06709_000000271_0001_41_56_H_._HHH_b1_03222_0001_0000100009_0000001_0 (protein)
chain: SSSSSANEEAIELALRAAERALEKGNPEKAREWLEFALRQAEILGNPELLEEIRELLEKLSSSSS
B6: il2ra_site1_3nfp_sap_15_mot_HHH_b2_00809_af2_000000121_0001_23_40_H_._HHH_b2_00375_af2_0001_0000100006_0000001_0_0001 (protein)
chain: SEEEEIEERLRELGVPPAQVRAVLRFFEQALKQGYPPEEVLEIIVRYLEKMGDPELARAVREVLK
B7: il2ra_site2_2erj_normal_mot_HHH_b2_06983_000000031_0001_43_57_H_._HHH_b1_03120_af2_0001_0000500021_0000001_0 (protein)
chain: SSSSDEEERELEELLVKLVELAREGDEEQAKKLLEELEELAEELNDLLTLMFVELLKREFSSSSS
B8: il2ra_site2_3nfp_normal_mot_HHH_b1_05627_af2_000000038_0001_43_56_H_._HHH_b2_03758_0001_0000400029_0000001_0 (protein)
chain: SSSSSKQEEYLRIALEIAERAAEQGDPEAARESLEAALLLAEALRNEELLEEIRQLLEEIGSSSS
B9: il2ra_site2_2erj_sap_14_mot_HHH_b1_04257_af2_000000188_0001_43_57_H_._HHH_b2_02437_0002_0000400020_0000001_0_0001_af2pred_0001_1_af2pred_swapped (protein)
chain: SSSSDVEERVRELLEEARELLEEGDPHRAASVLIEAAYLALEAGDDELFEEVSKVSDRIIRSSSS
B10: il2ra_site2_2erj_sap_25_mot_HHH_b1_05944_000000221_0001_38_56_H_._HHH_b1_01612_af2_0001_0000700025_0000001_0_0001 (protein)
chain: SSSNELAMFAFKLVSELVQELGLDSEQAAELFEFAKRLVEEGVSEEEIKELVEELAERLAGSSSS
B11: il2ra_site2_3nfp_sap_18_mot_HHH_b1_07556_000000077_0001_42_55_H_._HHH_b2_04115_af2_0001_0000100001_0000001_0_0001 (protein)
chain: SSSSSKAEEYIRVALEAVEELLKAGDPEAAERVLHIAKLAAESRNNEELQELIERLEEEVKSSSS
B12: il2ra_site2_2erj_sap_19_mot_HHH_b1_03609_af2_000000077_0001_42_55_H_._HHH_b1_01357_0001_0000200011_0000001_0_0001 (protein)
chain: SSSSSSVEEEVRELLEEAERAYEEGDLHRVYELAVEALRVAARNNDREALRLIREVMERLSSSSS
B13: il2ra_site2_3nfp_sap_21_mot_HHH_b1_05627_af2_000000038_0001_43_56_H_._HHH_b2_05082_0001_0000600020_0000001_0_0001 (protein)
chain: SSSSDERVERSVEYAKAVAKLIPDPELREELERLAEELEEHGDPRLLQELSELILEIANKQSSSS
B14: il2ra_site1_3nfp_normal_mot_HHH_b1_08357_af2_000000270_0001_1_19_H_._HHH_b2_06876_af2_0001_0000400023_0000001_0 (protein)
chain: SSSSDERAEEFWRLIRELIEAQKEGDEELAKELAERLEELARERNDETAERSVERLLELLRSSSS
B15: il2ra_site1_1z92_sap_29_mot_HHH_b2_01810_000000233_0001_40_54_H_._HHH_b1_02670_af2_0001_0000100011_0000001_0_0001 (protein)
chain: SSSSSLERSARIIVRIAVEIAGLSEEQEKLLEELAEELIERGLDFQELLKELDKLAVKLASSSSS
B16: il2ra_site2_2erj_sap_12_mot_HHH_b2_05633_000000270_0001_38_52_H_._HHH_b2_02572_0001_0000100008_0000001_0_0001 (protein)
chain: DEEEEVEELLERLAERAGVPQVEVENRNGTFHITIEGDNYAARTLEAAAEWFLKASGIPVEVTVE
B17: il2ra_site2_3nfp_sap_19_mot_HHH_b2_07498_000000057_0001_1_14_H_._HHH_b2_01176_0001_0000300017_0000001_0_0001 (protein)
chain: SSSSDREERLEKLLEELEELIRKNDEEEVRRLSAEIAHLAFENNDFEIFFKLAELLYEFASSSSS
B18: il2ra_site2_2erj_sap_22_mot_8fa6976bf83f87873b50afdd12020151_0001_1_000000155_0001_14_31_H_._HHH_b1_03742_af2_0001_0000100001_0000001_0_0001 (protein)
chain: SSSSDVEEALIRNALLLARELLEEGNPEEAEQVVRAAISYAEAANDEELLEEARQLLEEIGSSSS
B19: il2ra_site1_3nfp_sap_12_mot_HHH_b1_07180_af2_000000260_0001_1_19_H_._HHH_b2_05487_0001_0000100013_0000001_0_0001 (protein)
chain: DEEEIIREAVESMAEFANIPSVTVESSNGKFHVEIEGDDIEARAVSKLIEDAARAAGIDVTVEYE
B20: il2ra_site1_2b5i_normal_mot_2cbe48e66a1f39b3fed734b245ab0a04_0001_000000015_0001_17_31_H_._HHH_b2_07797_0001_0000200006_0000001_0_af2pred_dldesign_0_af2pred (protein)
chain: SSSSSSREEVRAEVERLLEEARKLEDPIEQNRLLYEALYLARKAKDPELIAKVERVAKELSSSSS
B21: il2ra_site2_3nfp_sap_15_mot_HHH_b1_07095_000000265_0001_1_20_H_._HHH_b2_07388_af2_0001_0000200007_0000001_0_0001 (protein)
chain: SSSSSEEVEEAQALATELARRLMEEGDHEAALELYRLALELYRTGDPELARELLEFVEEFSSSSS
B22: il2ra_site2_3nfp_sap_9_mot_HHH_b2_05976_000000001_0001_22_38_H_._HHH_b2_00671_af2_0001_0000300011_0000001_0_0001 (protein)
chain: SSSSDYEEQATESAEKMAKELGDEELVEELRELLEEYKEKGDARVLLELYEVILEVYERAHSSSS
B23: il2ra_site1_2b5i_sap_17_mot_e16fbc155443e7b5a8f44372f038f9e6_0001_1_af2_000000163_0001_16_32_H_._9e5b67f2fe50fe8120620fffc4d177d6_0001_af2_0001_0000200044_00000 … (protein)
chain: SSSSDEIFQEILRLYHEASELYRQGNHEEARKLLEEAIRLAEEGNDENALRDLERFLELLGSSSS
B24: il2ra_site2_3nfp_normal_mot_2b1f115384cdfca4a5db2aa6683d1a54_0001_af2_000000285_0001_52_65_H_._ems_3hM_1325_0001_0000300029_0000001_0 (protein)
chain: SSSELEEEVEELREIAEEAAKHNDEEAILRAASEASELAEKYDDPEFFDLYAFIADLRAKVVRSS

The target in this assay is il2ra, P01589. The experiment in a line: yeast display titration.
B1: the “apparent Kd” value was “inactive: no binding seen”. The value for B2 was “inactive: no binding seen”; that for B3 was “inactive: no binding seen”; that for B4 was “inactive: no binding seen”. The same measure for B5: “inactive: no binding seen”; for B6: “inactive: no binding seen”; for B7: “inactive: no binding seen”. Consider B8, for which the “apparent Kd” value was “inactive: no binding seen”. For B9, the “apparent Kd” value was “inactive: no binding seen”. The same measure for B10: “inactive: no binding seen”.

For the molecule B11, the “apparent Kd” value is “inactive: no binding seen”. As to B12, the “apparent Kd” value was “inactive: no binding seen”. As for B13, the “apparent Kd” value was “inactive: no binding seen”. The same measure for B14: “inactive: no binding seen”. Turning to B15, the “apparent Kd” value was “inactive: no binding seen”. In the case of B16, the “apparent Kd” value was “inactive: no binding seen”. The same measure for B17: “inactive: no binding seen”.

As for B18, the “apparent Kd” value is “inactive: no binding seen”. As to B19, the “apparent Kd” value was “inactive: no binding seen”. For the molecule B20, the “apparent Kd” value is “inactive: no binding seen”. Take B21: the “apparent Kd” value was “inactive: no binding seen”.

For B22, the “apparent Kd” value is “inactive: no binding seen”. The same measure for B23: “inactive: no binding seen”; for B24: inactive: > 52.4 µM.
